The test has as its target T1, recombinant human IL-1α (human, UniProt P01583 113-271).
T1 sequence (looked up): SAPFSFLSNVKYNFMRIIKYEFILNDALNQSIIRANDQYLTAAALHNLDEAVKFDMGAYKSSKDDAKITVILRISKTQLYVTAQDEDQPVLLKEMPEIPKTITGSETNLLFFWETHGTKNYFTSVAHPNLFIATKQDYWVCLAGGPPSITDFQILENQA
The test can be described thus: ELISA screen of phage supernatants on plates coated with recombinant human IL-1α, anti-FLAG detection. On the technique in general: ELISA stands for enzyme-linked immunosorbent assay.

These are yes or no findings as the source states them, for the method shown. Some binding calls cover weakened binding; strength is not graded here.

Consider one molecule from patent US20260132192A1 (XBIOTECH, published 2026).

B1: human monoclonal antibody designated XIA12 (antibody, V domains shown)
VH: QVQLVQSGAEVKKPGSSVKVSCKASGGRFTNYAILWVRQAPGQGLQWLGGIIPIFDETDHAQDFQDRLTITVDESMTTAYMELSSLRPEDTAIYYCATGSNSYYGLYWGQGTLVTVSS
VL: DIVMTQSPDFLAVSLGERATINCKSSQSVLYSSDNKNYLAWYQQKAGQPPKLLIYWASTRESGVPDRFSGSGSATDFTLTISSLQAEDVAVYYCQQYYSLPITFGQGTRLEIKR
In the case of B1, the binding entry is “binds”.
